Our source for the binding values is patent US20060024313A1, “Agents that disrupt dimer formation in DPP-IV family of prolyl dipeptidases” (priority 2004, published 2006).

Chains of the proteins cited; added tags and fusions are not shown. Residues count along the entry.
UniProt P27487, residues 39-766: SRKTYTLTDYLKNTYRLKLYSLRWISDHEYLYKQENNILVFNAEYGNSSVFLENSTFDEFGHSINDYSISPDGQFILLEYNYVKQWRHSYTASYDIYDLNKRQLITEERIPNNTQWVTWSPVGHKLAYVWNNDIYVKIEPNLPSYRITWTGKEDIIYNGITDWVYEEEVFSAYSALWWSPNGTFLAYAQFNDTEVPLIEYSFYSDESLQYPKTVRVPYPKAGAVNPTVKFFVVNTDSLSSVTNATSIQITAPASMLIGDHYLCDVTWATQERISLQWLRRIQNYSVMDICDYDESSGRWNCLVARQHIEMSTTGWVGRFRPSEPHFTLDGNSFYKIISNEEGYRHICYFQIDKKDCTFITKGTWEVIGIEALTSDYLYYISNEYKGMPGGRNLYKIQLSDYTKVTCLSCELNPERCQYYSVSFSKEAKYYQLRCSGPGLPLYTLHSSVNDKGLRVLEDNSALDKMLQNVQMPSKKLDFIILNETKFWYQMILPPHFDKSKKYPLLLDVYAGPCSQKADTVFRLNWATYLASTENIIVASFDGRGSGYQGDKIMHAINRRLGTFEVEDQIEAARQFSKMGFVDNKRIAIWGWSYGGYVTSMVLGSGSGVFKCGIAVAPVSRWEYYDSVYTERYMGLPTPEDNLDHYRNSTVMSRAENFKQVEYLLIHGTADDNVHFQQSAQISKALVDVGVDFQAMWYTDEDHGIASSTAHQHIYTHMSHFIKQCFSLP

These are yes or no findings as the source states them, for the method shown. Some entries that bind do so weakly or less than the wild type.

The target of test [1] is T1, Bovine adenosine deaminase (ADA) (bovine) (UniProt P56658).
T1 sequence (coupled to CNBr-activated Sepharose 4B (affinity column), looked up): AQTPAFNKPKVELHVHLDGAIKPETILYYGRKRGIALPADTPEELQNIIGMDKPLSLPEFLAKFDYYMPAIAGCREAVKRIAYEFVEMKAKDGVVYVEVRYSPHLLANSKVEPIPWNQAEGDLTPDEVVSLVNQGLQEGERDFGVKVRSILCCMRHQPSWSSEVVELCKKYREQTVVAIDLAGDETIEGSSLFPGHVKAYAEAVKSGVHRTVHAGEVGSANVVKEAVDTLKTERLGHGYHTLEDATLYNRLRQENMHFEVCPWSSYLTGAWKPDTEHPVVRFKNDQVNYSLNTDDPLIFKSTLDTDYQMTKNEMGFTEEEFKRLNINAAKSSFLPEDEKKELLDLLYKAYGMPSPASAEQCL
Description: ADA affinity column purification.

Test [2] concerns the target DPP 8 (UniProt Q6V1X1). Description: analytical ultracentrifugation (self-association).
Test [3] addresses DPP 8 (UniProt Q6V1X1). Description: analytical ultracentrifugation, figure legend (self-association).

As to “endogenous DPP-IV purified from human semen (sDPP-IV) (from UniProt P27487 39-766) (enzyme)”, in test [1], the binding result is “binds”.

As to “DPP 8 (from UniProt Q6V1X1 1-882) (enzyme)”, the binding result in test [2] and in test [3] was “binds” throughout.
